Data reported in PubChem BioAssay AID504467 (National Center for Advancing Translational Sciences (NCATS), 2011).
Hit rate of the full screen: of about 330,000 compounds, about 7,700 (2.3%) were called active. Inconclusive means that the source gave no clear call. Such entries were picked first, then a sample of the others. Calls follow the shape of the dose curve; as a rule, active = well fitted inhibition curve with a large enough effect; inconclusive = small, poorly fitted or top-dose-only effect, or effect the other way; inactive = flat fitted curve, though single readings scatter. Potencies beside an inconclusive call are fits to weak or partial responses and may not hold up.

assay: qHTS screen for small molecules that inhibit ELG1-dependent DNA repair in human embryonic kidney (HEK293T) cells expressing luciferase-tagged ELG1; conditions: HEK293T ELG1-luciferase reporter, luminescence, 16 h, DNA damage induced by 5-fluorouridine; series mostly up to 46.1 µM; also: nearly all actives have a fitted effect of over 55% in size
How it was run: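 HEK293T cells expressing luciferase-tagged ELG1 (2,000/well) received 5-Fluorouridine plus compound or DMSO for 16 hr at 37 °C. Luciferase was read by ONE-Glo luminescence after 30 min at room temperature.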
Potency is read from the fitted curve at half-maximal effect.

SMILES | Potency
CC(=O)c1cccc(NC(=O)C2CCN(S(=O)(=O)c3cccs3)CC2)c1 | inconclusive: 10.3 µM [inhibitor, partial curve, poor fit]
CCCCc1ccc(NC(=S)N2CCN(C(=O)OCC)CC2)cc1 | inactive
O=S(=O)([N-]c1nc2ccccc2nc1-[n+]1ccc(-c2ccncc2)cc1)c1ccccc1 | inconclusive: 10.3 µM [activator, partial curve]
COc1cc(C(=O)OCC(=O)c2cc(C)n(C)c2C)cc(OC)c1OC | inconclusive: 25.9 µM [inhibitor, partial curve, poor fit]
O=C(CNC(=O)c1cc2c(s1)CCC2)Nc1ccccc1Br | inconclusive: 16.4 µM [activator, partial curve]
COc1ccccc1CNC(=O)CN1C(=O)COc2ccc(S(=O)(=O)NC3CCCC3)cc21 | inconclusive: 20.6 µM [activator, partial curve, poor fit]
N/C(CS(=O)(=O)c1ccccn1)=N\OC(=O)c1ccc(Cl)cc1 | inconclusive: 29.1 µM [activator, single point]
Cc1onc(C(=O)NN)c1-c1csc(COc2ccc(Cl)cc2)n1 | inconclusive: 20.6 µM [inhibitor, single point]
Cc1nnc(C)c2c(C)n(-c3ccc(Cl)c(N)c3)c(C)c12 | inconclusive: 20.6 µM [activator, partial curve, poor fit]
CS(=O)(=O)c1ccc(Cl)c(NC(=O)C2CCCN(C(=O)c3ccc(Cl)cc3)C2)c1 (configuration not stated) | inactive
COc1ccc(CCNC(=O)Cc2cccc(C(F)(F)F)c2)cc1OC | inactive
Brc1ccc(-c2csc(-c3c[nH]c4ccccc34)n2)cc1 | inconclusive: 25.9 µM [activator, single point]
CC(=O)N1CCN(C2=Nc3cccc4cccc2c34)CC1 | inactive
CC(=O)Nc1ccc(C(=O)COC(=O)c2cccs2)c(F)c1 | inconclusive: 9.2 µM [activator, partial curve]
COc1ccccc1/C=c1\sc2nc(-c3ccccc3OC)nn2c1=O | inactive
CCCCc1cc(=O)oc2cc(OCc3nn[nH]n3)ccc12 | inactive
Cc1ccc(OCC(=O)N2CCCC(CO)(CCOc3ccccc3)C2)cc1 (configuration not stated) | inconclusive: 18.3 µM [inhibitor, single point]
CC(=O)c1cccc(NC(=O)COC(=O)C2=COCCO2)c1 | inactive
CCNC(=S)/N=C(\N)Nc1nc(C)c2cc(C)ccc2n1 | inconclusive: 3.66 µM [activator, full curve]
C=CCN(CC=C)C(=O)c1cccc(S(=O)(=O)N2c3ccccc3CC2C)c1 (configuration not stated) | inconclusive: 18.3 µM [inhibitor, partial curve, poor fit]
CC(C)COc1ccc(/C=C2/Sc3ccccc3C2=O)cc1 | inconclusive: 10 µM [activator, partial curve]
Cc1ccc(N=C2NC(=O)/C(=C\c3cccs3)S2)cc1C | inconclusive: 8.2 µM [activator, partial curve]
Cc1cccc(C(=O)Nc2ccnc(-c3cccnc3)n2)c1 | inconclusive: 23.1 µM [inhibitor, partial curve, poor fit]

SMILES | Potency
Cc1ccc(CCNC(=O)C2CCC(=O)N(Cc3ccccc3F)C2)o1 (configuration not stated) | inconclusive: 29.1 µM [activator, single point]
CCOc1ccc(-c2nnc3ccc(SCc4ccc(C(=O)OC)o4)nn23)cc1 | active: 20.6 µM
O=C(O)c1ccccc1C(=O)Nc1ccc(Oc2ccc3ccccc3c2)cc1 | inconclusive: 18.3 µM [activator, single point]
CC(C(=O)N1CCOCC1)N1C(=O)c2ccccc2C1=O (configuration not stated) | inactive
Cc1cc(=O)c(C(=O)Nc2cccc(N3CCCC3=O)c2)nn1-c1ccccc1F | inconclusive: 23.1 µM [activator, partial curve, poor fit]
BrC(/C=N/Nc1nc(N2CCOCC2)nc(N2CCOCC2)n1)=C/c1ccccc1 | active: 11.6 µM
Cc1cccc(NS(=O)(=O)c2ccc(C)c(C(=O)NCC(c3ccco3)N3CCCCC3)c2)c1 (configuration not stated) | inconclusive: 11.6 µM [inhibitor, partial curve, poor fit]
CCCCCN(C(=O)CCC(=O)OCC(=O)c1ccc(C(C)CC)cc1)c1c(N)n(CCCC)c(=O)[nH]c1=O (configuration not stated) | inactive
CN1CCN(C(=S)NC(=O)c2ccco2)CC1 | inactive
COc1cccc(-n2nc3c(-n4ncc(C#N)c4N)nnc(C)c3c2C)c1 | inconclusive: 11.6 µM [inhibitor, partial curve]
Cc1ccc(CNC(=O)c2ccc(CNc3c(N4CCCC4)c(=O)c3=O)cc2)cc1 | inconclusive: 25.9 µM [activator, partial curve, poor fit]
Cc1ccc(-c2ccc(SCC(=O)c3ccccc3)nn2)cc1 | inconclusive: 14.6 µM [activator, partial curve]
O=C(Cn1nnc(-c2ccccc2)n1)c1ccccc1 | inconclusive: 14.6 µM [activator, single point]
CCN(C(=O)COC(=O)c1ccc(C=O)cc1)c1c(N)n(Cc2ccccc2)c(=O)[nH]c1=O | inactive
O=C1N(Cc2cccc(Cl)c2)C[C@@H]2C[C@@H](c3cccc4ncccc34)N3CCC[C@@]123 | inconclusive: 8.2 µM [inhibitor, partial curve, poor fit]
CCCCC1=NN(C(=O)c2cccnc2)C(O)(C(F)(F)F)C1 (configuration not stated) | inactive
CCCCNc1cc(F)nc(N)n1 | inactive
Cc1nc(CC(=O)c2ccc(O)cc2O)cs1 | inconclusive: 18.4 µM [activator, single point]
COc1cc(-c2nc(Cc3c(F)cccc3Cl)no2)cc(OC)c1OC | inconclusive: 23.1 µM [inhibitor, single point]
O=C(O)c1ccc(N/N=C/C(Br)=C/c2ccccc2)cc1 | inconclusive: 2.06 µM [activator, full curve]
Nc1nnc(SCc2cccc(C(F)(F)F)c2)s1 | inconclusive: 18.4 µM [activator, single point]
Cc1nc(C)c(NC(=O)OC(C)C)cc1NC(=O)OC(C)C | inactive
C=CCC[C@@H](Cc1ccc(F)cc1)C(=O)OC[C@H]1CCCN1C(=O)[C@@H](CC=C)CC(=O)N[C@H](CO)Cc1ccccc1 | inconclusive: 23.1 µM [inhibitor, single point]

SMILES | Potency
CCOc1cc2[nH]c(=S)n(CC3CCCO3)c(=O)c2cc1OCC (configuration not stated) | inconclusive: 18.4 µM [inhibitor, single point]
COc1ccc(/C=C2\Oc3cc(OCC(=O)N4CCC[C@H]4CO)ccc3C2=O)c(OC)c1 | inconclusive: 10.3 µM [inhibitor, single point]
CCOCCCNC(=O)Cn1nc(Cc2ccncc2)c2ccccc2c1=O | inactive
C[C@@H](CSc1ccccc1)CN1CC[C@H](NC(=O)OCc2ccccc2)CCC1=O | inconclusive: 25.9 µM [inhibitor, single point]
CCC(=O)NC(=S)Nc1ccc(NC(=O)c2ccc([N+](=O)[O-])cc2Cl)cc1 | active: 5.8 µM
COc1ccc(CNC(=O)c2cc3ccccc3o2)cc1OC | inconclusive: 18.3 µM [inhibitor, partial curve]
COc1ccc([N+](=O)[O-])cc1NC(=S)NC(NC(C)=O)C(Cl)(Cl)Cl (configuration not stated) | inconclusive: 6.51 µM [inhibitor, single point]
c1ccc(-n2c(SCC3CCCCO3)nnc2-c2cccs2)cc1 (configuration not stated) | inactive
COc1ccccc1NS(=O)(=O)c1cc(NC(=O)c2cc(=O)[nH]c3ccccc23)ccc1N1CCOCC1 | inconclusive: 20.6 µM [inhibitor, single point]
COC(=O)c1ccc(-c2noc(CN3CCCC(CNC(C)=O)C3)n2)cc1 (configuration not stated) | inactive
CC1CCN(S(=O)(=O)c2nnc(NC(=O)c3cccc(Cl)c3)s2)CC1 | inconclusive: 9.2 µM [inhibitor, partial curve, poor fit]
Cc1[nH]n(-c2cccc([N+](=O)[O-])c2)c(=O)c1-c1ccccc1 | inactive
Cc1onc(-c2ccccc2Cl)c1C(=O)Nc1nnc(-c2cccc([N+](=O)[O-])c2)s1 | inconclusive: 14.6 µM [inhibitor, single point]
CC(OC(=O)c1ccccc1)C(=O)NCc1ccco1 (configuration not stated) | inactive
C#CCOCCOCCOCCNc1nc(N2CCN(C(=O)CCCCCCCCCCNC(=O)[C@@H](CCC(=O)O)n3cc(CCCCCN)nn3)CC2)nc(N2CCN(C(=O)CCCCCCCCCCNC(=O)[C@H](CCCCN)n3cc(C[C@@H](C)CC)nn3)CC2)n1 | active: 3.16 µM
CC(C)(O)C#Cc1ccc(C(=O)N2CCN(c3ccc(Cl)cc3)CC2)cc1 | inconclusive: 23.1 µM [inhibitor, single point]
C=CCOC(=O)C1=C[C@@H](c2coc3ccccc3c2=O)C[C@@H](OCc2ccc(CO)cc2)O1 | inactive
COc1cc(C(=O)OC(C)C(=O)NC(=O)NC2CCCCC2)ccc1OC(F)F (configuration not stated) | inactive
Cc1ccc([N+](=O)[O-])cc1S(=O)(=O)Nc1ccc(-c2ccc(N3CCCC3)nn2)cc1 | inconclusive: 23.1 µM [activator, single point]
Cc1ccc(/C=C2\SC(=S)N(CCC(=O)NNC(=O)c3ccccc3O)C2=O)cc1 | inconclusive: 5.17 µM [inhibitor, partial curve, poor fit]
COCC(=O)n1nc(-c2ccccc2)nc1NCc1ccc(F)cc1 | inconclusive: 18.4 µM [activator, single point]

Quoted from the listing:
Value of COc1ccc(CNC(=O)c2cc3ccccc3o2)cc1OC under Potency: inconclusive: 18.3 µM [inhibitor, partial curve]
Value of CC(=O)Nc1ccc(C(=O)COC(=O)c2cccs2)c(F)c1 under Potency: inconclusive: 9.2 µM [activator, partial curve]
Value of CCCCCN(C(=O)CCC(=O)OCC(=O)c1ccc(C(C)CC)cc1)c1c(N)n(CCCC)c(=O)[nH]c1=O (configuration not stated) under Potency: inactive
Value of C=CCN(CC=C)C(=O)c1cccc(S(=O)(=O)N2c3ccccc3CC2C)c1 (configuration not stated) under Potency: inconclusive: 18.3 µM [inhibitor, partial curve, poor fit]
